In PMC3182922:

Tests used:
[1] = target: T1, Glideosome-Associated Protein 45 (Toxoplasma gondii (endogenous in tachyzoites)) (UniProt Q7Z289); experiment: co-IP; anti-GAP45 rabbit IgG (non-specific rabbit IgG as control) with ProteinG paramagnetic microbeads, lysate of ELC1-HA expressing parasites; eluates stained with Sypro Ruby or probed by Western blot with anti-HA
T1 sequence: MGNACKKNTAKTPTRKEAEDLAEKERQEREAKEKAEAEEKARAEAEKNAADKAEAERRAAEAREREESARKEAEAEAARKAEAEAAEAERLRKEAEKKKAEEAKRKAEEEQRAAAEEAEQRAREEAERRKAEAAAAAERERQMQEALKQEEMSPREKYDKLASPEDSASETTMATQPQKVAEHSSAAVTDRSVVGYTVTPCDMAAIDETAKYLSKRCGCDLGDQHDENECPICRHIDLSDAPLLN

[2] = target: HA-tagged Myosin Light Chain 1 (Toxoplasma gondii); experiment: co-IP; anti-HA antibody on paramagnetic MicroBeads, lysates of MLC1-HA or ELC1-HA expressing tachyzoites (wild type as control), 20 mM HEPES pH 7.4, 150 mM NaCl, 1% Triton X-100, 0.5% NP-40, 1 h at 4°C; Western blot with antibodies against MyoA, GAP45, MLC1
[3] = target: HA-tagged Essential Light Chain 1 (Toxoplasma gondii); experiment: as above

Molecule	binding [1]	binding [2]	binding [3]
HA-tagged Essential Light Chain 1 (Toxoplasma gondii)	binds		
Glideosome-Associated Protein 45 (protein, UniProt Q7Z289 1-245) MGNACKKNTAKTPTRKEAEDLAEKERQEREAKEKAEAEEKARAEAEKNAADKAEAERRAAEAREREESARKEAEAEAARKAEAEAAEAERLRKEAEKKKAEEAKRKAEEEQRAAAEEAEQRAREEAERRKAEAAAAAERERQMQEALKQEEMSPREKYDKLASPEDSASETTMATQPQKVAEHSSAAVTDRSVVGYTVTPCDMAAIDETAKYLSKRCGCDLGDQHDENECPICRHIDLSDAPLLN		binds	binds

No constants are given. Whether binding was seen depends on the method and setting. In cells and extracts the contact can be indirect. Binding can be weak; no strength is given.
